Measurements: publication PMC11847685
These are yes or no findings as the source states them, for the method shown. Binding seen in cells or lysates may run through a third protein. Some results given as binding are weak or reduced against the parent protein; the word gives no strength.

By UniProt entry, the sequences of proteins in these tests, tags left out. Where a name states a change or a piece, a line headed by the entry shows the natural chain unless it says otherwise.
UniProt P06401: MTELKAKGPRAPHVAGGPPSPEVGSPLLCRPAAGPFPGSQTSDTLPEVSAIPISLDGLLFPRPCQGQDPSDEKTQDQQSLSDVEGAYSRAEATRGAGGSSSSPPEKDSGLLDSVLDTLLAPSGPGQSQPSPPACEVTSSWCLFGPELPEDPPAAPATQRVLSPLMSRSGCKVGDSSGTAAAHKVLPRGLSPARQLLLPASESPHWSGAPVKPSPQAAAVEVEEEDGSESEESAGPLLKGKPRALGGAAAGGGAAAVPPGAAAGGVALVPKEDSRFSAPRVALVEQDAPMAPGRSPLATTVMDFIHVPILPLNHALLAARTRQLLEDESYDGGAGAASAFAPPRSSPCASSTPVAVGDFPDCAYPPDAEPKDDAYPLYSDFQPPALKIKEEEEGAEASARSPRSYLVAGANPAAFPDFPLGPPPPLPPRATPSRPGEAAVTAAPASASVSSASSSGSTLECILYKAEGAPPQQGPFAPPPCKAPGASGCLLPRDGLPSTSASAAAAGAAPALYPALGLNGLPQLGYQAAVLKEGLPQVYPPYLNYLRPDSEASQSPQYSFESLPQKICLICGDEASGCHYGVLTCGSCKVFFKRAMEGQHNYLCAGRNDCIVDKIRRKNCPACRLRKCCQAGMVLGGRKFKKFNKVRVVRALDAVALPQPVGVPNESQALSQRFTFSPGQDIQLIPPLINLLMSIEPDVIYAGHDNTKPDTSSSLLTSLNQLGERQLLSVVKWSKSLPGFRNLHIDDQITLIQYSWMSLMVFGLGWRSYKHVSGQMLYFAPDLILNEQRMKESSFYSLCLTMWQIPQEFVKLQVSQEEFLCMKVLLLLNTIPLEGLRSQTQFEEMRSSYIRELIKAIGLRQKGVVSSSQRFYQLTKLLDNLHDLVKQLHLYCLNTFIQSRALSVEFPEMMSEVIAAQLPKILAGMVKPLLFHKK

What was measured:
Experiment in all cases: co-IP; endogenous proteins of T47D, MCF-7 and BT-483 cell extracts (200 ug protein), primary antibody (2 ug) and protein A agarose beads, washed 5 times with lysis buffer and once with PBS, Western blot; cells with or without P4 (50 nM), with NT siRNA or SHP2 siRNA
[1] = molecular target: progesterone receptor (PR) (human (endogenous in T47D, MCF-7 and BT-483)) (UniProt P06401)
[2] = molecular target: caveolin-1 (human (endogenous in T47D, MCF-7 and BT-483)) (UniProt Q03135)
[3] = molecular target: Csk (human (endogenous in T47D, MCF-7 and BT-483)) (UniProt P41240)
[4] = molecular target: T1, caveolin-1 (human (endogenous in T47D, MCF-7 and BT-483)), Q03135; conditions: remark: other sources report otherwise
T1 chain: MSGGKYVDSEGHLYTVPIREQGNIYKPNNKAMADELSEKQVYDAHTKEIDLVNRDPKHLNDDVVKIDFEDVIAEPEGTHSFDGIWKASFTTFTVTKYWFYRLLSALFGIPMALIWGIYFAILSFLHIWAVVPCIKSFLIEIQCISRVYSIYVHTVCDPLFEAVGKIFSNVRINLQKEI

[5] = molecular target: Csk (human (endogenous in T47D, MCF-7 and BT-483)), P41240; conditions: remark: other sources report otherwise

B1: p140Cap (protein, UniProt Q9C0H9 1-1183)
chain: MGNAPSQDPERSSPPMLSADDAEYPREYRTLGGGGGGGSGGRRFSNVGLVHTSERRHTVIAAQSLEALSGLQKADADRKRDAFMDHLKSKYPQHALALRGQQDRMREQPNYWSFKTRSSRHTQGAQPGLADQAAKLSYASAESLETMSEAELPLGFSRMNRFRQSLPLSRSASQTKLRSPGVLFLQFGEETRRVHITHEVSSLDTLHALIAHMFPQKLTMGMLKSPNTAILIKDEARNVFYELEDVRDIQDRSIIKIYRKEPLYAAFPGSHLTNGDLRREMVYASRESSPTRRLNNLSPAPHLASGSPPPGLPSGLPSGLQSGSPSRSRLSYAGGRPPSYAGSPVHHAAERLGGAPAAQGVSPSPSAILERRDVKPDEDLASKAGGMVLVKGEGLYADPYGLLHEGRLSLAAAAGDPFAYPGAGGLYKRGSVRSLSTYSAAALQSDLEDSLYKAAGGGGPLYGDGYGFRLPPSSPQKLADVAAPPGGPPPPHSPYSGPPSRGSPVRQSFRKDSGSSSVFAESPGGKTRSAGSASTAGAPPSELFPGPGERSLVGFGPPVPAKDTETRERMEAMEKQIASLTGLVQSALLRGSEPETPSEKIEGSNGAATPSAPCGSGGRSSGATPVSGPPPPSASSTPAGQPTAVSRLQMQLHLRGLQNSASDLRGQLQQLRKLQLQNQESVRALLKRTEAELSMRVSEAARRQEDPLQRQRTLVEEERLRYLNDEELITQQLNDLEKSVEKIQRDVSHNHRLVPGPELEEKALVLKQLGETLTELKAHFPGLQSKMRVVLRVEVEAVKFLKEEPQRLDGLLKRCRGVTDTLAQIRRQVDEGVWPPPNNLLSQSPKKVTAETDFNKSVDFEMPPPSPPLNLHELSGPAEGASLTPKGGNPTKGLDTPGKRSVDKAVSVEAAERDWEEKRAALTQYSAKDINRLLEETQAELLKAIPDLDCASKAHPGPAPTPDHKPPKAPHGQKAAPRTEPSGRRGSDELTVPRYRTEKPSKSPPPPPPRRSFPSSHGLTTTRTGEVVVTSKKDSAFIKKAESEELEVQKPQVKLRRAVSEVARPASTPPIMASAIKDEDDEDRIIAELESGGGSVPPMKVVTPGASRLKAAQGQAGSPDKSKHGKQRAEYMRIQAQQQATKPSKEMSGSNETSSPVSEKPSASRTSIPVLTSFGARNSSISF
**Q.** B1 was tested. Which binding [1] did it give?
**A.** binds

**Q.** What about the binding [2] of the same binder?
**A.** binds

**Q.** What about the binding [3] of the same binder?
**A.** binds

B2: Csk, P41240 1-450 (enzyme)
chain: MSAIQAAWPSGTECIAKYNFHGTAEQDLPFCKGDVLTIVAVTKDPNWYKAKNKVGREGIIPANYVQKREGVKAGTKLSLMPWFHGKITREQAERLLYPPETGLFLVRESTNYPGDYTLCVSCDGKVEHYRIMYHASKLSIDEEVYFENLMQLVEHYTSDADGLCTRLIKPKVMEGTVAAQDEFYRSGWALNMKELKLLQTIGKGEFGDVMLGDYRGNKVAVKCIKNDATAQAFLAEASVMTQLRHSNLVQLLGVIVEEKGGLYIVTEYMAKGSLVDYLRSRGRSVLGGDCLLKFSLDVCEAMEYLEGNNFVHRDLAARNVLVSEDNVAKVSDFGLTKEASSTQDTGKLPVKWTAPEALREKKFSTKSDVWSFGILLWEIYSFGRVPYPRIPLKDVVPRVEKGYKMDAPDGCPPAVYEVMKNCWHLDAAMRPSFLQLREQLEHIKTHELHL
**Q.** For B2, which binding [4] is on record?
**A.** binds

B3: caveolin-1, Q03135 1-178 (protein)
chain: MSGGKYVDSEGHLYTVPIREQGNIYKPNNKAMADELSEKQVYDAHTKEIDLVNRDPKHLNDDVVKIDFEDVIAEPEGTHSFDGIWKASFTTFTVTKYWFYRLLSALFGIPMALIWGIYFAILSFLHIWAVVPCIKSFLIEIQCISRVYSIYVHTVCDPLFEAVGKIFSNVRINLQKEI
**Q.** With B3 as the binder, how does the binding [5] read?
**A.** binds

B4: phosphorylated caveolin-1 (p-caveolin-1), Q03135 1-178 (protein)
chain: MSGGKYVDSEGHLYTVPIREQGNIYKPNNKAMADELSEKQVYDAHTKEIDLVNRDPKHLNDDVVKIDFEDVIAEPEGTHSFDGIWKASFTTFTVTKYWFYRLLSALFGIPMALIWGIYFAILSFLHIWAVVPCIKSFLIEIQCISRVYSIYVHTVCDPLFEAVGKIFSNVRINLQKEI
modifications: here or on the partner: phosphorylated (printed as p-caveolin-1); site not given
**Q.** Which binding [5] does the source give for B4 here?
**A.** binds
